Test results from PubChem BioAssay AID332 (DTP/NCI, 2004).
The list does not hold the whole screen: it gathers tests that were run many times, whatever their T/C, doses with no T/C, and many T/C values between a quarter and a half above the control. Other doses and runs of a compound stand elsewhere. T/C gives the treated animals as a percentage of the vehicle group. Schedule codes are those of the source, taken here to give the interval after Q, in days (D) or hours (H), and the number of doses after X. Some molecules as drawn cover several salts, stereoisomers or complexes of the source; a dose is that of the sample tested. Some T/C values carry the count of animals alive at the toxicity check (mostly the fifth day); without a count, all were alive then. Some entries were tested several times; the results are listed from low to high. Some doses have a count of surviving animals in place of a T/C: the source files T/C as zero there, which appears to mark a toxic dose or a test without result, not a measured value. Survivors were counted at the toxicity check, usually on the fifth day, unless a day is given; later deaths do not show.

Tested on: mice, ADJ-PC-20 plasma cell tumor sc, T/C %
Experiment: NCI In Vivo Anticancer Drug Screen. Data for tumor model ADJ-PC-20 Plasma Cell (subcutaneous) in unknown mice
Conditions: T/C endpoint: mean tumor weight, higher T/C = larger tumour; for T/C: evaluated on day 21
Description: The antitumor activity of compounds was measured in mice bearing transplantable tumors. Survival or tumor size were measured and the results are expressed as the measurement made in the treated group (T) divided by the measurement made in the vehicle treated control group (C). The tumor model used in this assay is ADJ-PC-20 Plasma Cell (subcutaneous) in unknown mice

[1] = dose: 400.0 mg/kg/injection, schedule: Q01DX010 (ip), vehicle: carboxymethylcellulose (CMC)
[2] = dose: 80.0 mg/kg/injection, schedule: Q01DX010 (ip), vehicle: carboxymethylcellulose (CMC)
[3] = dose: 1.0 mg/kg/injection, schedule: Q01DX010 (ip), vehicle: saline
[4] = dose: 2.0 mg/kg/injection, schedule: Q01DX010 (ip), vehicle: carboxymethylcellulose (CMC)
[5] = dose: 50.0 mg/kg/injection, schedule: Q01DX010 (ip), vehicle: carboxymethylcellulose (CMC)
[6] = dose: 200.0 mg/kg/injection, schedule: Q01DX010 (ip), vehicle: carboxymethylcellulose (CMC)
[7] = dose: 3.1 mg/kg/injection, schedule: Q01DX010 (ip), vehicle: carboxymethylcellulose (CMC)
[8] = dose: 500.0 mg/kg/injection, schedule: Q01DX010 (sc), vehicle: steroid suspending solution
[9] = dose: 250.0 mg/kg/injection, schedule: Q01DX010 (sc), vehicle: steroid suspending solution
[10] = dose: 25.0 mg/kg/injection, schedule: Q01DX010 (ip), vehicle: carboxymethylcellulose (CMC)

O=C(Nc1ccc(C2=NCCN2)cc1)c1ccc(C(=O)Nc2ccc(C3=NCCN3)cc2)cc1 was tested, and the survivor count [1] was 1 of 10 and the survivor count (dose: 800.0 mg/kg/injection, schedule: Q01DX010 (ip), vehicle: carboxymethylcellulose (CMC)) was 0 of 10.
In the case of O=C(Nc1ccc(NC2=NCCN2)cc1)c1ccc(C(=O)Nc2ccc(NC3=NCCN3)cc2)cc1, the survivor count (dose: 16.0 mg/kg/injection, schedule: Q01DX010 (ip), vehicle: saline) is reported as 5 of 10 and the survivor count (dose: 32.0 mg/kg/injection, schedule: Q01DX010 (ip), vehicle: saline) is reported as 0 of 10.
For CCOC(=O)NP(=O)(N1CC1(C)C)N1CC1(C)C (stereo unspecified), the T/C (dose: 31.0 mg/kg/injection, schedule: Q01DX010 (ip), vehicle: carboxymethylcellulose (CMC)) was 125 % of control [9 of 10 alive], the T/C (dose: 62.5 mg/kg/injection, schedule: Q01DX010 (ip), vehicle: carboxymethylcellulose (CMC)) was 146 % of control and the survivor count (dose: 500.0 mg/kg/injection, schedule: Q01DX010 (ip), vehicle: carboxymethylcellulose (CMC)) was 0 of 10. For the same molecule, the survivor count (dose: 1000.0 mg/kg/injection, schedule: Q01DX010 (ip), vehicle: carboxymethylcellulose (CMC)) was 0 of 10.
With CC(CCC(C)OS(C)(=O)=O)OS(C)(=O)=O (stereo unspecified) the survivor count [2] was 0 of 10 and the survivor count (dose: 160.0 mg/kg/injection, schedule: Q01DX010 (ip), vehicle: carboxymethylcellulose (CMC)) was 0 of 10.
O=c1cn[nH]c(=O)[nH]1 was tested, and the survivor count (dose: 2000.0 mg/kg/injection, schedule: Q01DX010 (ip), vehicle: carboxymethylcellulose (CMC)) was 3 of 10 and the survivor count (dose: 4000.0 mg/kg/injection, schedule: Q01DX010 (ip), vehicle: carboxymethylcellulose (CMC)) was 6 of 10.
With C1CN1c1nc(N2CC2)nc(N2CC2)n1 the survivor count (dose: 0.25 mg/kg/injection, schedule: Q01DX010 (ip), vehicle: saline) was 0 of 10 and the survivor count [3] was 0 of 10.
For O=C1C(NC(=O)C2CCCCC2)=C(N2CC2)C(=O)C(NC(=O)C2CCCCC2)=C1N1CC1, the T/C (dose: 18.8 mg/kg/injection, schedule: Q01DX010 (ip), vehicle: carboxymethylcellulose (CMC)) was 126 % of control [7 of 10 alive] and the survivor count (dose: 150.0 mg/kg/injection, schedule: Q01DX010 (ip), vehicle: carboxymethylcellulose (CMC)) was 2 of 10.
With Nc1nc(=S)c2ncn(C3OC(CO)C(O)C3O)c2[nH]1 (stereo unspecified) the survivor count (dose: 5.0 mg/kg/injection, schedule: Q01DX010 (ip), vehicle: carboxymethylcellulose (CMC)) was 0 of 10.
In the case of Nc1ncnc2c1ccn2C1OC(CO)C(O)C1O (stereo unspecified), the T/C (dose: 0.31 mg/kg/injection, schedule: Q01DX010 (ip), vehicle: carboxymethylcellulose (CMC)) is reported as 125 % of control, the survivor count (dose: 1.25 mg/kg/injection, schedule: Q01DX010 (ip), vehicle: carboxymethylcellulose (CMC)) is reported as 5 of 10 and the survivor count (dose: 2.5 mg/kg/injection, schedule: Q01DX010 (ip), vehicle: carboxymethylcellulose (CMC)) is reported as 0 of 10.
With COS(C)(=O)=O the survivor count (dose: 200.0 mg/kg/injection, schedule: Q01DX010 (ip), vehicle: water) was 0 of 10.
For CN(C)c1ccc(/C=C/c2ccnc3ccccc23)cc1, the T/C (dose: 8.0 mg/kg/injection, schedule: Q01DX010 (ip), vehicle: carboxymethylcellulose (CMC)) was 132 and 146 % of control [8 of 10 alive], the T/C (dose: 8.0 mg/kg/injection, schedule: Q01DX010 (ip), vehicle: water) was 143 % of control and the survivor count (dose: 32.0 mg/kg/injection, schedule: Q01DX010 (ip), vehicle: carboxymethylcellulose (CMC)) was 0 of 10. For the same molecule, the survivor count (dose: 32.0 mg/kg/injection, schedule: Q01DX010 (ip), vehicle: water) was 0 of 10.
For [I][Hg][CH2]C1COC([CH2][Hg][I])CO1 (stereo unspecified), the survivor count (dose: 60.0 mg/kg/injection, schedule: Q01DX010 (ip), vehicle: carboxymethylcellulose (CMC)) was 0 of 10 and the survivor count (dose: 120.0 mg/kg/injection, schedule: Q01DX010 (ip), vehicle: carboxymethylcellulose (CMC)) was 0 of 10.
For Nc1nc2n[nH]nc2c(=O)[nH]1, the T/C (dose: 12.5 mg/kg/injection, schedule: Q01DX010 (ip), vehicle: other) was 129 % of control, the survivor count (dose: 100.0 mg/kg/injection, schedule: Q01DX010 (ip), vehicle: other) was 5 of 10 and the survivor count (dose: 150.0 mg/kg/injection, schedule: Q01DX010 (ip), vehicle: other) was 5 of 10. For the same molecule, the survivor count (dose: 300.0 mg/kg/injection, schedule: Q01DX010 (ip), vehicle: other) was 0 of 10.
With CCn1cnc2c(=S)nc[nH]c21 the survivor count (dose: 125.0 mg/kg/injection, schedule: Q01DX010 (ip), vehicle: carboxymethylcellulose (CMC)) was 0 of 10.
CN(Cc1cnc2nc(N)nc(N)c2n1)c1c(Cl)cc(C(=O)NC(CCC(=O)O)C(=O)O)cc1Cl (stereo unspecified) was tested, and the survivor count (dose: 100.0 mg/kg/injection, schedule: Q01DX010 (ip), vehicle: carboxymethylcellulose (CMC)) was 1 of 10.
C[C@@H]1C[C@H]2CC[C@H](O2)[C@H](C)C(=O)O[C@@H](C)C[C@@H]2CC[C@@H](O2)[C@@H](C)C(=O)O[C@H](C)C[C@H]2CC[C@H](O2)[C@H](C)C(=O)O[C@@H](C)C[C@@H]2CC[C@@H](O2)[C@@H](C)C(=O)O1 was tested, and the survivor count [1] was 4 of 10.
In the case of CCCNc1ncnc2[nH]ncc12, the survivor count (dose: 40.0 mg/kg/injection, schedule: Q01DX010 (ip), vehicle: water) is reported as 6 of 10.
With Nc1nc(=S)c2[nH]cnc2[nH]1 the survivor count (dose: 0.5 mg/kg/injection, schedule: Q01DX010 (ip), vehicle: carboxymethylcellulose (CMC)) was 0 of 10 and the survivor count [4] was 0 of 10.
With CSCS(=O)C[C@H](CO)NC(=O)/C=C/c1c(C)[nH]c(=O)[nH]c1=O (stereo partly specified) the survivor count [3] was 0 of 10 and the survivor count (dose: 2.0 mg/kg/injection, schedule: Q01DX010 (ip), vehicle: saline) was 0 of 10.
For N=C(N)SCc1c2ccccc2c(CSC(=N)N)c2ccccc12, the survivor count (dose: 40.0 mg/kg/injection, schedule: Q01DX010 (ip), vehicle: carboxymethylcellulose (CMC)) was 6 of 10 and the survivor count [2] was 0 of 10.
In the case of CN(C)c1ccc(Nc2c3ccccc3nc3ccccc23)cc1, the T/C (dose: 12.5 mg/kg/injection, schedule: Q01DX010 (ip), vehicle: carboxymethylcellulose (CMC)) is reported as 136 % of control, the T/C [5] is reported as 136 % of control and the survivor count [6] is reported as 0 of 10. The survivor count [1] was 0 of 10.
O[C@H](CN1CC1)[C@@H](O)CN1CC1 was tested, and the survivor count (dose: 1.0 mg/kg/injection, schedule: Q01DX010 (ip), vehicle: carboxymethylcellulose (CMC)) was 0 of 10 and the survivor count [4] was 0 of 10.
With Cn1c(N)nc2nc[nH]c2c1=S the T/C [7] was 132 % of control and the survivor count [6] was 6 of 10.
For O=NN(CCCl)C(=O)NCCCl, the survivor count (dose: 25.0 mg/kg/injection, schedule: Q01DX010 (ip), vehicle: saline) was 0 of 10.
With C[C@]12CCC(=O)C=C1CC[C@@H]1[C@@H]2CC[C@@]2(C)[C@H]1CC[C@]2(C)O the survivor count [8] was 6 of 10 and the survivor count (dose: 1000.0 mg/kg/injection, schedule: Q01DX010 (sc), vehicle: steroid suspending solution) was 1 of 10.
In the case of CN(C)CC(=O)c1ccc(O)c(O)c1, the T/C (dose: 125.0 mg/kg/injection, schedule: Q01DX010 (ip), vehicle: saline) is reported as 125 % of control.
CC[C@H](c1ccc(O)cc1)[C@@H](CC)c1ccc(O)cc1 was tested, and the survivor count (dose: 62.5 mg/kg/injection, schedule: Q01DX010 (sc), vehicle: steroid suspending solution) was 4 of 10, the T/C [9] was 137 % of control and the survivor count [9] was 6 of 10. The survivor count [8] was 6 of 10.
For O=C(O)CCCc1ccc(N(CCCl)CCCl)cc1, the survivor count [10] was 5 of 10 and the survivor count [5] was 0 of 10.
In the case of S=P(N1CCOCC1)(N1CC1)N1CC1, the T/C [7] is reported as 136 % of control and the survivor count [10] is reported as 0 of 10.
